Assay results as given in the supplement of paper PMC10849652.
The other results are listed elsewhere or left out.

Protein sequences, listed by entry. Tags and fused reporters are not part of them. Lines headed by an entry give the natural chain unless they say otherwise; changes in a name come on top.
UniProt Q16181: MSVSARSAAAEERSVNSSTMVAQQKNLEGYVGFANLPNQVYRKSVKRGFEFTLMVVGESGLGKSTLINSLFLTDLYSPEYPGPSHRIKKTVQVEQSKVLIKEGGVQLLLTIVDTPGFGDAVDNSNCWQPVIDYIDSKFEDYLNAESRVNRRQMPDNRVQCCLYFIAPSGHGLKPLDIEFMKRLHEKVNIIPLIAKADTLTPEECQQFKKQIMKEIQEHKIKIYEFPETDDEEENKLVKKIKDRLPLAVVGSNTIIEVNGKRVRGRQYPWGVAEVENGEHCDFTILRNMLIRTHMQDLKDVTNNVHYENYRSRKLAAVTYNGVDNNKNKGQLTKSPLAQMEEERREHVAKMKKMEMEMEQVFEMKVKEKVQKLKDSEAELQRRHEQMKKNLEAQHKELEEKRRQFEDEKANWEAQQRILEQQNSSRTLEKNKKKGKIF
UniProt Q9UPW6: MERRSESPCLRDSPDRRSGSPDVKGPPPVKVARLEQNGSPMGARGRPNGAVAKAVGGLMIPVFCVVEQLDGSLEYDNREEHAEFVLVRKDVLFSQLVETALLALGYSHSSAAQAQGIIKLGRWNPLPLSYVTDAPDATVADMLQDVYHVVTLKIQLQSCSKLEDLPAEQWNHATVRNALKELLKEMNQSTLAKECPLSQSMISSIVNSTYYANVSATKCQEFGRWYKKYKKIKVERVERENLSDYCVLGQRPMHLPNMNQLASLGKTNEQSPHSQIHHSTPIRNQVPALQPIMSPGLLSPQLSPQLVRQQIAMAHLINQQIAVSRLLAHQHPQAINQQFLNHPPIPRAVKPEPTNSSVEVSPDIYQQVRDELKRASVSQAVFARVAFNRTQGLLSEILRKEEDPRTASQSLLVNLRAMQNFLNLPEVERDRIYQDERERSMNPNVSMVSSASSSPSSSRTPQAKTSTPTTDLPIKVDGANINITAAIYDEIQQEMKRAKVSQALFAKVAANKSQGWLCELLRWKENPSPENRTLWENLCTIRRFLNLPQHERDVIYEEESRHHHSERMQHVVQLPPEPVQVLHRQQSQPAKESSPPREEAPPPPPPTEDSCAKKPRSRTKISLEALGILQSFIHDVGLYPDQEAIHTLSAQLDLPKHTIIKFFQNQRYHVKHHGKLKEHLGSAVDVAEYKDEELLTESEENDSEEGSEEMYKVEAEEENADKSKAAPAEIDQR
UniProt Q15437: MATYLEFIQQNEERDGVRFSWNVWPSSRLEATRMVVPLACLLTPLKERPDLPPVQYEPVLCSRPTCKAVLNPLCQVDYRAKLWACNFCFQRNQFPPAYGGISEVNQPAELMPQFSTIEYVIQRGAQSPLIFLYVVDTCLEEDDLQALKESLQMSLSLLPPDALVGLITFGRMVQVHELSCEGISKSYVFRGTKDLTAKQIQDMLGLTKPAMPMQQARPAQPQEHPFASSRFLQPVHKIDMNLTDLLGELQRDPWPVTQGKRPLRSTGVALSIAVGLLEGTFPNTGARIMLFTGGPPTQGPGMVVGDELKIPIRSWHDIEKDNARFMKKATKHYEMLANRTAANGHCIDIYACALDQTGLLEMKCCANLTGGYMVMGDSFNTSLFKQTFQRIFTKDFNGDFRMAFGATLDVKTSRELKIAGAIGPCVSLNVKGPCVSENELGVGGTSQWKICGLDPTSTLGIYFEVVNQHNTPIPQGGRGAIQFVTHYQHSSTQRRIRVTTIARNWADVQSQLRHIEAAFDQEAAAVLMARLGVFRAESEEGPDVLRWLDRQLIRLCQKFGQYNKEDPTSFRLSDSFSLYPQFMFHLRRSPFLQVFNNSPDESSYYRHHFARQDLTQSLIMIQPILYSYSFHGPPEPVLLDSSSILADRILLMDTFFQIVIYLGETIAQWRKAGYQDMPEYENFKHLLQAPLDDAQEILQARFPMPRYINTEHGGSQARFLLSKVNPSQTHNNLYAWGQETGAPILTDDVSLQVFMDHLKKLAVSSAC
UniProt O95486: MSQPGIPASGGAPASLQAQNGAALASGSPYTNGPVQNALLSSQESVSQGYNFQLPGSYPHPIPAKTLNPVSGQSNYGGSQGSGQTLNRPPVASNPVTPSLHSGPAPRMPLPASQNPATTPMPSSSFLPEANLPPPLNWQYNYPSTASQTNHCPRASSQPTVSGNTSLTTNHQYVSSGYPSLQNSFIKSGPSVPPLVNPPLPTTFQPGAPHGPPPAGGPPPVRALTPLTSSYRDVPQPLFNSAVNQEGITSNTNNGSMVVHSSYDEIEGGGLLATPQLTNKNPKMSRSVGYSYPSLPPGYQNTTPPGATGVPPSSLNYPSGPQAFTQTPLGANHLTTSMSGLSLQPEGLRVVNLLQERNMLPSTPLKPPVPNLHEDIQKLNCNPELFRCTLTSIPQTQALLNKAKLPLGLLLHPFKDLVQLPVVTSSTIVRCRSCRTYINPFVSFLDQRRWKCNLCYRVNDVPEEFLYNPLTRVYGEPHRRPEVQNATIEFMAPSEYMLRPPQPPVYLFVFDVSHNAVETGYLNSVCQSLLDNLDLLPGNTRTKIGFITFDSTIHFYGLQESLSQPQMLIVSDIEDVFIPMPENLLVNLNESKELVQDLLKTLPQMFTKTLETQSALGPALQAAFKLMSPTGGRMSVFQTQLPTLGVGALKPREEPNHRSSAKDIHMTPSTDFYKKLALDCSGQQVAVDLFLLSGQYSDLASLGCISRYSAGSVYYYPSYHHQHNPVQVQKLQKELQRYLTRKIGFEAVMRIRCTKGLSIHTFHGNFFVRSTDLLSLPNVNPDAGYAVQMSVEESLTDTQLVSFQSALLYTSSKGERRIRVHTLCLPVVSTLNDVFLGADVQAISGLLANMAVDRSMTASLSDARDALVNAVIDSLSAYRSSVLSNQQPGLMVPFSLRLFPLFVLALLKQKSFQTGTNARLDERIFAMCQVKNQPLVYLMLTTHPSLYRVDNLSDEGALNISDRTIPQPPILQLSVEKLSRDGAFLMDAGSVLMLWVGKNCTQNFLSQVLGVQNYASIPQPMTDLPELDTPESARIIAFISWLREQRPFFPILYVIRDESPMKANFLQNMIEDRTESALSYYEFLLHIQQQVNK
UniProt O14828: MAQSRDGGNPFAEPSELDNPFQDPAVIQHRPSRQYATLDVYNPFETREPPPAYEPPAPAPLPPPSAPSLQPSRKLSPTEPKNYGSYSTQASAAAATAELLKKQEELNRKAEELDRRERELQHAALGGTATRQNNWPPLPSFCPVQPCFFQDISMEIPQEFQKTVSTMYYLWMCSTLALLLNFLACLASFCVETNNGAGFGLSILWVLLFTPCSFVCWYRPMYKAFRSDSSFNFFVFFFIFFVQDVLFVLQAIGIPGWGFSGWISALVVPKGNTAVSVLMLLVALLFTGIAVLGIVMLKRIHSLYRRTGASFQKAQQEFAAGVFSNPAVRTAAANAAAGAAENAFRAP
UniProt Q8NBX0: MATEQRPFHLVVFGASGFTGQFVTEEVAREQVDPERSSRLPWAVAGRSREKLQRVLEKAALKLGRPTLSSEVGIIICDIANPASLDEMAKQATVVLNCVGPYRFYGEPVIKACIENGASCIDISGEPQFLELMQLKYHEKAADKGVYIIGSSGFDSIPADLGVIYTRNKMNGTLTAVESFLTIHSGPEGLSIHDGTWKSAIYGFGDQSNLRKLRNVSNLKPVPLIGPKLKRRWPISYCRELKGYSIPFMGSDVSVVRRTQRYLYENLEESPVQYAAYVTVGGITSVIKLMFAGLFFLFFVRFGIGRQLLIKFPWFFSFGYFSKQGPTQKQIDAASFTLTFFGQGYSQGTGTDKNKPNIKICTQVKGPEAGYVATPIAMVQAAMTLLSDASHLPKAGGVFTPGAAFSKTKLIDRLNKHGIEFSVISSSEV
UniProt P21912: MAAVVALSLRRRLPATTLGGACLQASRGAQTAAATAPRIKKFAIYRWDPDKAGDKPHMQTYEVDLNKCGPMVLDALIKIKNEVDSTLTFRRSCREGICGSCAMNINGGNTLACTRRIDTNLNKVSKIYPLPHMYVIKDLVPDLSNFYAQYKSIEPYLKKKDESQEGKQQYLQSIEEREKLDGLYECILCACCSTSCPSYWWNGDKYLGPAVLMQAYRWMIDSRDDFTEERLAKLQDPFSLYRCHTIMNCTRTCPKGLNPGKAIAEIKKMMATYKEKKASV
UniProt Q6P3W7: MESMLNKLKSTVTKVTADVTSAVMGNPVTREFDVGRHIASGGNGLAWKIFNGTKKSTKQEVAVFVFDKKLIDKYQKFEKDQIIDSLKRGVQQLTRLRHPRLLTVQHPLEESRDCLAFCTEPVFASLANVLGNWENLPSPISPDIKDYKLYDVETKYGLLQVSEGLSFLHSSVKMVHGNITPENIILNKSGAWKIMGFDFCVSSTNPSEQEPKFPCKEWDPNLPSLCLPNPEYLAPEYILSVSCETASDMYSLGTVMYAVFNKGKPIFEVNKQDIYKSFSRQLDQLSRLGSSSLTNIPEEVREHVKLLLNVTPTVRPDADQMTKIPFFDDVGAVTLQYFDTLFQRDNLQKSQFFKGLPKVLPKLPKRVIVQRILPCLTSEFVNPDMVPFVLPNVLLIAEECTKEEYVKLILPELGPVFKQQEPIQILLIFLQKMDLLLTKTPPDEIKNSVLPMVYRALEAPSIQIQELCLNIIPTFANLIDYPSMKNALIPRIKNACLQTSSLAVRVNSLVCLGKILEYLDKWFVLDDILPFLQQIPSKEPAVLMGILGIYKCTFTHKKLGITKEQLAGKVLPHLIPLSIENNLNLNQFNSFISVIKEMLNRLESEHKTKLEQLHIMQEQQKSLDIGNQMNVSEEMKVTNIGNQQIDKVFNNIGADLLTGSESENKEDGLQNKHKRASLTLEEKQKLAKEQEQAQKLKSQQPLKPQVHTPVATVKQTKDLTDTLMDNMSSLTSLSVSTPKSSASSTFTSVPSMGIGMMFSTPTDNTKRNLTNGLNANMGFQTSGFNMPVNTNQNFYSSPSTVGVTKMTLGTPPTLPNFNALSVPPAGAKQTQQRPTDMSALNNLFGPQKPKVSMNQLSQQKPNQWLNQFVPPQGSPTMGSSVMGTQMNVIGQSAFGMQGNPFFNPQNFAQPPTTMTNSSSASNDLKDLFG
UniProt Q6UVJ0: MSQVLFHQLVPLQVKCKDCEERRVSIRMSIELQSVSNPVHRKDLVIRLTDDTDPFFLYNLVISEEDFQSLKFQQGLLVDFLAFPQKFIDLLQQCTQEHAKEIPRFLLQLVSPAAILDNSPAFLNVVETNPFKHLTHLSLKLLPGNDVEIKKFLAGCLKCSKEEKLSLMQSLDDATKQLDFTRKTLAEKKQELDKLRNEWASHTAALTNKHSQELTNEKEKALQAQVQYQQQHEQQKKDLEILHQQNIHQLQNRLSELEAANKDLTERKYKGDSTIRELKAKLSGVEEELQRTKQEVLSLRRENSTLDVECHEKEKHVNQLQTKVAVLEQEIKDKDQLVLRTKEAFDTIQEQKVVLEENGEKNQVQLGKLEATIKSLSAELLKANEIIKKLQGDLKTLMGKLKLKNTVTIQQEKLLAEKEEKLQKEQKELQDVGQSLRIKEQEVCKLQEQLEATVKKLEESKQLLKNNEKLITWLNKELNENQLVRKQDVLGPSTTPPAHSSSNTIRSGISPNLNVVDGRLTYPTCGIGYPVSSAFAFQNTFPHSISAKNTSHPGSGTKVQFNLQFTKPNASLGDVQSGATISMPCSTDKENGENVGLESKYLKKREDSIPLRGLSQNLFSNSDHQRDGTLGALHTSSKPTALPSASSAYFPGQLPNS
UniProt O00767: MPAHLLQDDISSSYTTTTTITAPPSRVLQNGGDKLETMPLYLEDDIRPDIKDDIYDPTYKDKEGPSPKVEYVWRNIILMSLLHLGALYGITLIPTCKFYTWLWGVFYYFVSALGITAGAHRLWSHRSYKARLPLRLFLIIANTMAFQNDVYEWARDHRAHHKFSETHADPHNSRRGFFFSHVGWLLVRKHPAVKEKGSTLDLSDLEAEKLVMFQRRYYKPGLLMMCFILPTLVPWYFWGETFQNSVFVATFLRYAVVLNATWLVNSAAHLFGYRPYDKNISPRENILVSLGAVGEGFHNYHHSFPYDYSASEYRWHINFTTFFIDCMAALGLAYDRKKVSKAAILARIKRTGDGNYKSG
UniProt Q15019: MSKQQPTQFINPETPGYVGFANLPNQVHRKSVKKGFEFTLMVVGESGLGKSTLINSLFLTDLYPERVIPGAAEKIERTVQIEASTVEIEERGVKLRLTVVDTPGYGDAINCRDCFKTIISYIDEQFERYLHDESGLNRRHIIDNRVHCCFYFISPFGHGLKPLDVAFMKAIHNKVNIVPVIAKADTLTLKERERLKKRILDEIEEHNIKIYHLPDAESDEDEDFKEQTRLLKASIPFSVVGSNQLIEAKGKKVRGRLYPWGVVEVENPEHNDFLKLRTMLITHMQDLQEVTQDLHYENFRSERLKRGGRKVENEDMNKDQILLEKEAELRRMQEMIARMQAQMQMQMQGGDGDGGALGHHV
UniProt Q9Y6B6: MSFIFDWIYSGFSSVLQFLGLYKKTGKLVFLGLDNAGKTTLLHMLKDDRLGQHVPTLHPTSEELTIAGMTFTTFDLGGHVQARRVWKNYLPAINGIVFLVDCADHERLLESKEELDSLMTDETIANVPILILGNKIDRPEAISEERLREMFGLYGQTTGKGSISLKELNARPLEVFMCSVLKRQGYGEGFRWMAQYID

Assays:
Assay in all cases: log2 fold change, soluble protein after heating vs DMSO (PISA); higher = thermal stabilisation; K562 lysate, 10 uM; active = over 0.2 and 3.5 SD of the protein, either way, in both replicates (recomputed)
nilotinib = compound: Cc1cn(-c2cc(NC(=O)c3ccc(C)c(Nc4nccc(-c5cccnc5)n4)c3)cc(C(F)(F)F)c2)cn1 [nilotinib]
Summary of the method: (§1)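 Quantification was by TMTpro 16plex LC-MS/MS with equalised channel sums, applied to the supernatant after 21,000xg for 90 min. Samples were crude K562 extract at 1 mg/mL protein in PBS pH 7.4 with 1 mM MgCl2, treated with 10 μM compound for 30 min, heated for 3 min across 48°C-58°C, pooled and brought to 0.5% NP-40 at 4°C. Values are log-two fold changes in thermal stability relative to solvent controls, from duplicates.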

[1] = compound: Cc1nc(Nc2n[nH]c3c2CN(C(=O)N[C@H](CN(C)C)c2ccccc2)C3(C)C)c2sccc2n1
Summary of the method: as §1

dasatinib = compound: Cc1nc(Nc2ncc(C(=O)Nc3c(C)cccc3Cl)s2)cc(N2CCN(CCO)CC2)n1 [dasatinib]
Summary of the method: as §1

[2] = compound: Cc1ncc(-c2ccnc(Nc3ccc(S(C)(=O)=O)cc3)n2)n1C(C)C
Summary of the method: as §1

[3] = compound: Cn1cc(-c2ccc3c(c2)CCN3C(=O)Cc2cccc(C(F)(F)F)c2)c2c(N)ncnc21
Summary of the method: as §1

quisinostat = compound: Cn1cc(CNCC2CCN(c3ncc(C(=O)NO)cn3)CC2)c2ccccc21 [quisinostat]
Summary of the method: as §1

tipifarnib = compound: Cn1cncc1[C@@](N)(c1ccc(Cl)cc1)c1ccc2c(c1)c(-c1cccc(Cl)c1)cc(=O)n2C [tipifarnib]
Summary of the method: as §1

[4] = compound: NC(=O)Nc1cc(-c2cccc(F)c2)sc1C(=O)N[C@H]1CCCNC1
Summary of the method: as §1

[5] = compound: NC(=O)c1cnc(N[C@@H]2CCCC[C@@H]2N)nc1Nc1cccc(-n2nccn2)c1
Summary of the method: as §1

[6] = compound: NC1(c2ccc(-c3nc4ccn5c(=O)[nH]nc5c4cc3-c3ccccc3)cc2)CCC1
Summary of the method: as §1

[7] = compound: NCC(=O)Nc1ccc(-n2nc(C(F)(F)F)cc2-c2ccc3c(ccc4ccccc43)c2)cc1
Summary of the method: as §1

vorinostat = compound: O=C(CCCCCCC(=O)Nc1ccccc1)NO [vorinostat]
Summary of the method: as §1

silmitasertib = compound: O=C(O)c1ccc2c(c1)nc(Nc1cccc(Cl)c1)c1ccncc12 [silmitasertib]
Summary of the method: as §1

[8] = compound: O=C1NC(=O)C(c2cnc3ccccn23)=C1c1cn2c3c(cc(F)cc13)CN(C(=O)N1CCCCC1)CC2
Summary of the method: as §1

entospletinib = compound: c1cn2cc(-c3ccc4cn[nH]c4c3)nc(Nc3ccc(N4CCOCC4)cc3)c2n1 [entospletinib]
Summary of the method: as §1

| Target | log2 fold change (nilotinib) | log2 fold change [1] | log2 fold change (dasatinib) | log2 fold change [2] | log2 fold change [3] | log2 fold change (quisinostat) | log2 fold change (tipifarnib) | log2 fold change [4] | log2 fold change [5] | log2 fold change [6] | log2 fold change [7] | log2 fold change (vorinostat) | log2 fold change (silmitasertib) | log2 fold change [8] | log2 fold change (entospletinib) |
| --- | --- | --- | --- | --- | --- | --- | --- | --- | --- | --- | --- | --- | --- | --- | --- |
| SEPTIN7 (UniProt Q16181) | inactive: -0.001 | inactive: -0.024 | inactive: -0.011 | inactive: -0.041 | inactive: 0.021 | inactive: -0.04 | inactive: 0 | inactive: 0.003 | inactive: 0.001 | inactive: 0.002 | inactive: -0.005 | inactive: 0.07 | inactive: -0.002 | inactive: -0.023 | inactive: -0.007 |
| SBNO1 (UniProt A3KN83) | inactive: -0.009 | inactive: -0.009 | inactive: -0.01 | inactive: -0.006 | inactive: 0.014 | inactive: -0.025 | inactive: -0.007 | inactive: 0.004 | inactive: 0 | inactive: -0.006 | inactive: -0.002 | inactive: 0.002 | inactive: -0.002 | inactive: -0.02 | inactive: 0.002 |
| SATB2 (UniProt Q9UPW6) | inactive: -0.08 | inactive: -0.02 | inactive: 0.041 | inactive: -0.005 | inactive: 0.013 | inactive: -0.06 | inactive: 0.009 | inactive: 0.018 | inactive: 0.031 | inactive: 0 | inactive: 0 | active: -0.347 | inactive: 0.051 | inactive: -0.024 | inactive: 0.036 |
| SEC23B (UniProt Q15437) | inactive: -0.011 | inactive: 0.01 | inactive: 0.002 | inactive: -0.003 | inactive: -0.012 | inactive: 0.001 | inactive: 0.013 | inactive: -0.006 | inactive: -0.012 | inactive: -0.002 | inactive: -0.025 | inactive: -0.02 | inactive: -0.003 | inactive: -0.006 | inactive: 0.05 |
| SEC24A (UniProt O95486) | inactive: 0.033 | inactive: -0.011 | inactive: -0.03 | inactive: -0.007 | inactive: 0 | inactive: 0.005 | inactive: -0.042 | inactive: 0.006 | inactive: -0.004 | inactive: -0.019 | inactive: 0.027 | inactive: -0.057 | inactive: -0.015 | inactive: -0.024 | inactive: -0.011 |
| SEPTIN5 (UniProt G3XAH0) | inactive: 0.037 | inactive: 0.011 | inactive: -0.006 | inactive: 0.008 | inactive: 0.006 | inactive: 0.056 | inactive: 0.062 | inactive: -0.031 | inactive: 0 | inactive: -0.011 | inactive: 0.015 | inactive: -0.049 | inactive: 0.039 | inactive: -0.031 | inactive: -0.003 |
| SCAMP3 (UniProt O14828) | inactive: 0.008 | inactive: 0.014 | inactive: 0.034 | inactive: -0.009 | inactive: 0 | inactive: 0.01 | inactive: -0.018 | inactive: -0.032 | inactive: -0.018 | inactive: 0.027 | inactive: -0.008 | inactive: 0.137 | inactive: -0.024 | inactive: 0 | inactive: 0.008 |
| SCCPDH (UniProt Q8NBX0) | inactive: 0.12 | inactive: -0.002 | inactive: 0.058 | inactive: 0.151 | inactive: -0.019 | inactive: -0.058 | inactive: 0.049 | inactive: -0.217 | inactive: -0.081 | inactive: 0.022 | inactive: -0.129 | inactive: 0.34 | inactive: -0.19 | inactive: 0.115 | inactive: 0.087 |
| SDHB (UniProt P21912) | inactive: 0.061 | inactive: -0.02 | inactive: 0.012 | inactive: -0.003 | inactive: 0.005 | inactive: 0.031 | inactive: 0.014 | inactive: -0.01 | inactive: -0.005 | inactive: -0.001 | inactive: -0.018 | inactive: 0.113 | inactive: -0.029 | inactive: -0.002 | inactive: -0.014 |
| SEC61A1 (UniProt P61619) | inactive: -0.004 | inactive: 0.018 | inactive: 0.054 | inactive: 0.001 | inactive: -0.026 | inactive: 0.02 | inactive: 0.014 | inactive: -0.02 | inactive: -0.036 | inactive: -0.031 | inactive: 0.011 | inactive: 0.037 | inactive: -0.025 | inactive: 0.005 | inactive: 0.017 |
| SDHA (UniProt P31040) | inactive: 0.035 | inactive: 0.009 | inactive: 0.016 | inactive: 0.004 | inactive: -0.033 | inactive: -0.022 | inactive: -0.034 | inactive: -0.037 | inactive: -0.013 | inactive: 0.007 | inactive: 0.007 | inactive: 0.058 | inactive: -0.014 | inactive: -0.028 | inactive: -0.006 |
| SCYL2 (UniProt Q6P3W7) | inactive: 0.014 | inactive: 0.035 | inactive: -0.023 | inactive: 0.006 | inactive: 0.027 | inactive: -0.078 | inactive: -0.049 | inactive: 0.012 | inactive: -0.005 | inactive: -0.002 | inactive: 0.023 | inactive: 0.115 | inactive: -0.026 | inactive: -0.026 | inactive: -0.015 |
| SASS6 (UniProt Q6UVJ0) | inactive: -0.032 | inactive: 0.01 | inactive: -0.083 | inactive: 0.017 | inactive: 0.008 | inactive: -0.045 | inactive: -0.03 | inactive: 0.03 | inactive: 0.044 | inactive: 0.003 | inactive: 0.015 | active: -0.381 | inactive: 0.012 | inactive: 0.021 | inactive: 0.003 |
| SCML2 (UniProt Q9UQR0) | inactive: 0.042 | inactive: 0.004 | inactive: -0.014 | inactive: -0.06 | inactive: 0.027 | inactive: 0.007 | inactive: 0.065 | inactive: 0.048 | inactive: 0.012 | inactive: -0.022 | inactive: -0.099 | active: -0.243 | inactive: 0.039 | inactive: 0.037 | inactive: 0.007 |
| SEC16A isoform 5 (UniProt O15027) | inactive: -0.119 | inactive: 0.008 | inactive: -0.007 | inactive: 0.006 | inactive: -0.002 | inactive: -0.054 | inactive: -0.036 | inactive: 0.032 | inactive: 0.004 | inactive: -0.011 | inactive: 0.053 | active: -0.281 | inactive: 0.008 | inactive: -0.029 | inactive: -0.015 |
| SCD (UniProt O00767) | inactive: -0.007 | inactive: -0.017 | inactive: 0.01 | inactive: -0.01 | inactive: 0.007 | inactive: -0.144 | inactive: -0.077 | inactive: -0.023 | inactive: -0.183 | inactive: 0.03 | inactive: -0.045 | inactive: 0.021 | inactive: -0.057 | inactive: -0.028 | inactive: 0.017 |
| SEPTIN2 isoform 2 (UniProt Q15019) | inactive: 0.011 | inactive: -0.022 | inactive: 0.018 | inactive: -0.005 | inactive: -0.002 | inactive: -0.071 | inactive: 0.023 | inactive: 0.013 | inactive: -0.011 | inactive: 0 | inactive: 0.028 | inactive: 0.077 | inactive: -0.036 | inactive: -0.007 | inactive: -0.007 |
| SDHAF2 (UniProt Q9NX18) | inactive: 0.097 | inactive: 0.043 | inactive: -0.003 | inactive: 0.003 | inactive: -0.04 | inactive: -0.033 | inactive: -0.068 | inactive: 0.005 | inactive: 0.006 | inactive: 0.011 | inactive: 0.018 | inactive: 0.046 | inactive: -0.01 | inactive: 0.042 | inactive: -0.068 |
| SCAP (UniProt Q12770) | inactive: 0.042 | inactive: 0.012 | inactive: -0.079 | inactive: 0.007 | inactive: 0.033 | inactive: 0.029 | inactive: -0.088 | inactive: 0.013 | inactive: 0.099 | inactive: 0.178 | inactive: 0.029 | inactive: 0.07 | inactive: -0.02 | inactive: 0.07 | inactive: -0.038 |
| SEPTIN6 (UniProt Q14141) | inactive: 0.033 | inactive: -0.036 | inactive: 0.038 | inactive: 0.058 | inactive: -0.002 | inactive: -0.113 | inactive: 0.071 | inactive: 0.043 | inactive: 0.002 | inactive: 0.04 | inactive: -0.075 | inactive: 0.067 | inactive: -0.016 | inactive: 0 | inactive: 0.004 |
| SAR1B (UniProt Q9Y6B6) | inactive: 0.202 | inactive: 0.101 | inactive: 0.047 | inactive: -0.013 | inactive: -0.038 | inactive: 0.028 | inactive: -0.217 | inactive: -0.02 | inactive: -0.092 | inactive: -0.016 | inactive: -0.083 | inactive: 0.155 | inactive: -0.103 | inactive: -0.044 | inactive: -0.053 |

2 entries drawn at random from the list so far:

| Target | log2 fold change (nilotinib) | log2 fold change [1] | log2 fold change (dasatinib) | log2 fold change [2] | log2 fold change [3] | log2 fold change (quisinostat) | log2 fold change (tipifarnib) | log2 fold change [4] | log2 fold change [5] | log2 fold change [6] | log2 fold change [7] | log2 fold change (vorinostat) | log2 fold change (silmitasertib) | log2 fold change [8] | log2 fold change (entospletinib) |
| --- | --- | --- | --- | --- | --- | --- | --- | --- | --- | --- | --- | --- | --- | --- | --- |
| SEPTIN7 (UniProt Q16181) | inactive: -0.001 | inactive: -0.024 | inactive: -0.011 | inactive: -0.041 | inactive: 0.021 | inactive: -0.04 | inactive: 0 | inactive: 0.003 | inactive: 0.001 | inactive: 0.002 | inactive: -0.005 | inactive: 0.07 | inactive: -0.002 | inactive: -0.023 | inactive: -0.007 |
| SBNO1 (UniProt A3KN83) | inactive: -0.009 | inactive: -0.009 | inactive: -0.01 | inactive: -0.006 | inactive: 0.014 | inactive: -0.025 | inactive: -0.007 | inactive: 0.004 | inactive: 0 | inactive: -0.006 | inactive: -0.002 | inactive: 0.002 | inactive: -0.002 | inactive: -0.02 | inactive: 0.002 |
